# Assay results as given in patent US7732568B2, “Methods for preventing and treating Alzheimer's disease” (AFFIRIS Forschungs-und Entwicklungs GmbH, priority 2003, dated 2010).
# Some entries share one result that the patent states for a list of compounds.
# Test system: biotinylated monoclonal antibody specific for DAEFRH (natural N-terminal Aβ42 sequence)
# Assay: Inhibition assay for additional mimotopes (competition ELISA), Example 4 (FIGS. 4 and 5)
# Assay type: binding, mice
# Settings: plate-bound DAEFRH-BSA 0.1 μg/ml, peptides at different concentrations, 20 min, 37° C.
# Procedure: FIGS. 4 and 5 describe the results of inhibition assays performed with mimotope peptides included in and obtained from the 5 libraries (as described). The mimotope peptides compete with the original epitope for recognition by the monoclonal antibody. Original epitope and mimotope peptides contain an additional C at the C-terminus (position 7) for coupling to a protein carrier (if desired).
# After blocking with PBS/BSA 1% (200 μl/well, 12 h, 4° C.), the plates are washed 3× times with PBS/Tween. Then, biotinylated monoclonal antibody (1:2000, 50 μl/well) and peptides (50 μl/well) at different concentrations are added for 20 min. at 37° C. The plates are washed 3× times with PBS/Tween and are incubated with horseradish peroxidase (HRP)-labeled streptavidin (100 μl/well, 30 min, RT). The plates are washed 5× times with PBS/Tween and are incubated with ABTS H2O2 (0.1% w/v, 10 to 45 min) and the reaction is stopped with citric acid followed by photometric evaluation (wavelength 405 nm).
smiles,measurement,value
"C[C@H](NC(=O)[C@H](CC(=O)O)NC(=O)[C@H](CCCNC(=N)N)NC(=O)[C@H](Cc1ccccc1)NC(=O)[C@H](CCC(=O)O)NC(=O)[C@H](Cc1c[nH]c2ccccc12)NC(=O)[C@@H](N)CC(=O)O)C(=O)N[C@@H](CS)C(=O)O [Peptide 1241, DWEFRDA]",IC50 of inhibition of monoclonal antibody recognition of the original epitope,less than 0.5 μg/ml
